# Laboratory results: patent US8043823B2, “Methods of identifying agonists and antagonists of hTASR bitter taste receptors” (Deutsches Institut fuer Ernaehrungsforschung, priority 2007, dated 2011)
# For at least one compound, name, drawing or mass did not settle the structure.
# Target: T1, TAS2R47 (Homo sapiens, UniProt P59541)
# T1 construct: expressed in transfected cells; host or cells: HEK-293T cells stably expressing Gα16gust44
# T1 sequence (P59541 1-319): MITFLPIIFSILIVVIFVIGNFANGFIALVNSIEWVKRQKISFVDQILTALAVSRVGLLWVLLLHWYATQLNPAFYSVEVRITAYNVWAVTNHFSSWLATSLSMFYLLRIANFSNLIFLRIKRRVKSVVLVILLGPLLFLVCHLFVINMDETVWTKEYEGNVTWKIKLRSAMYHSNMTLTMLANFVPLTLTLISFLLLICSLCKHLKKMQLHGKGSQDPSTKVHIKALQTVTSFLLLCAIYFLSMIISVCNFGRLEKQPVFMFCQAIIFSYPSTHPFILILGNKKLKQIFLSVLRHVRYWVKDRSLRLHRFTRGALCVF
# Experiment: FLIPR calcium imaging of HEK-293T Gα16gust44 cells transiently expressing TAS2R47
# Format: cell-based
# Settings: Table 1; assay similar to Example 1
# Excerpt: Functional expression. Human TAS2R cDNA constructs were used that encoded a plasma membrane-targeting sequence of the rat somatostatin type 3 receptor at the N-terminus of the recombinant polypeptide and a herpes simplex virus glycoprotein D (HSV) epitope at its C-terminus (Bufe et al., 2002). The constructs were transiently transfected into HEK-293T cells that stably express the chimeric G-protein subunit Gα16gust44 using Lipofectamine 2000 (Invitrogen, San Diego, Calif.) in 96-well microtiter plates. Calcium imaging experiments using an automated fluorometric imaging plate reader (FLIPR) (Molecular Devices, Munich, Germany) have been performed 24-32 h later essentially as described previously (Bufe et al., 2002). Tastants (Sigma-Aldrich, Taufkirchen, Germany) were dissolved and administered in the following (in mM): 130 NaCl, 5 KCl, 10 HEPES, 2 CaCl2, and 10 mM glucose, pH7.4. Data were collected from 1-2 independent experiments performed at least in triplicate and processed with SigmaPlot (SPSS, Chicago, Ill.). For dose-response curve calculation, the peak fluorescence responses after compound addition were corrected for and normalized to background fluorescence (ΔF/F=(F−F0)/F0), and baseline noise was subtracted. […]
smiles,measurement,value
"CC(=O)O[C@@H]1C[C@]2(C)[C@H](CC[C@@H](O)[C@]2(C)O)[C@@](C=O)(C[C@@H](O)c2ccoc2)[C@@H]1C [Cascarillin, cascarillin]",molar range at which TAS2R47 responded,0.1-0.003
"C=C1CC[C@H]2C(=C)C(=O)O[C@@H]2/C=C(\C)CC[C@H]1O [Artemorin, artemorin]",molar range at which TAS2R47 responded,0.3-0.003
